Source: patent US20020115147A1
These are yes or no findings as the source states them, for the method shown. Binding seen in cells or lysates may run through a third protein. Some binding calls cover weakened binding; strength is not graded here.

By UniProt entry, the sequences of proteins in these tests, tags left out. Where a name states a change or a piece, a line headed by the entry shows the natural chain unless it says otherwise.
UniProt Q04095: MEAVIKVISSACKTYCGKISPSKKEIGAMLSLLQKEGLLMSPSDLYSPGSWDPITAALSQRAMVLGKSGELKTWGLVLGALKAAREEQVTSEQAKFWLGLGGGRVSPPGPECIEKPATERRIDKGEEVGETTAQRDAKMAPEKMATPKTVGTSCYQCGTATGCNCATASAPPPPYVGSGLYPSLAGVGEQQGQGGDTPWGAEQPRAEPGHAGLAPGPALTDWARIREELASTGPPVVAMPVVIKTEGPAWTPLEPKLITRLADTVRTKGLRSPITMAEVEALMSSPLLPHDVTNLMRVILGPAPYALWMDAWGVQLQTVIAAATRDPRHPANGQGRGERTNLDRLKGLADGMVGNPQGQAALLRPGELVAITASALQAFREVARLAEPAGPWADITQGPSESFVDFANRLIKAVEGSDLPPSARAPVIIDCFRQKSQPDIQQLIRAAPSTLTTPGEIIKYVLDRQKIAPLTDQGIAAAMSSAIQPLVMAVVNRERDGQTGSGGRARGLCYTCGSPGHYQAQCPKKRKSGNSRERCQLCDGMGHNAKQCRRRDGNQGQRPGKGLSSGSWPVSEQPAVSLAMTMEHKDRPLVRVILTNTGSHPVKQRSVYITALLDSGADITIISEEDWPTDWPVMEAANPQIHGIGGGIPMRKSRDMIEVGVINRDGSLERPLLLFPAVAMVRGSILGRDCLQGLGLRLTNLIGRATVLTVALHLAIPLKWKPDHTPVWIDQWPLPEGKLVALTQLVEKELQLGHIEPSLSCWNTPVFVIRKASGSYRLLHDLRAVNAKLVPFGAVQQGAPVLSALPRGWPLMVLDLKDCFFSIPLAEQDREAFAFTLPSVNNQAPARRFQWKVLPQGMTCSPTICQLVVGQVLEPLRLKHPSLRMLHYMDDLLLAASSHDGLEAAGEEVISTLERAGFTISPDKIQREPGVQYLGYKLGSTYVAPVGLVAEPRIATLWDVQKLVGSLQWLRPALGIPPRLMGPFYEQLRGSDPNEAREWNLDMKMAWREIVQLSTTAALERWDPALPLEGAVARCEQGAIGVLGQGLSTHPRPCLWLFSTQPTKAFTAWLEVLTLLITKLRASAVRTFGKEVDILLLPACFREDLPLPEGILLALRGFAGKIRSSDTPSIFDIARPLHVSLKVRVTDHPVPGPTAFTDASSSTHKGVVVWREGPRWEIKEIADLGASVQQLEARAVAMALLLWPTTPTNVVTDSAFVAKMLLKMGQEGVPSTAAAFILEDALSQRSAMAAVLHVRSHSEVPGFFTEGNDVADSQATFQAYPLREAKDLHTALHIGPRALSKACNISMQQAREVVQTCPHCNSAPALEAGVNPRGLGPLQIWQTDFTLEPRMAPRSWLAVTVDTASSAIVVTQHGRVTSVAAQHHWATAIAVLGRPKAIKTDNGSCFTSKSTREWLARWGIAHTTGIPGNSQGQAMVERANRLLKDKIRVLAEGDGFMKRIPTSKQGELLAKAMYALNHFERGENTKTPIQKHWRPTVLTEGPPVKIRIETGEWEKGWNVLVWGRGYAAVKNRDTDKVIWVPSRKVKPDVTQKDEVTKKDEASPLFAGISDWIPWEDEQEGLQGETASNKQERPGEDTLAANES

Legend:
[1] = biological target: β-chain of the AMV-RT with an N-terminal His tag (expressed from pAMV-βdnaY-His or pAMVαβ-4) (Avian Myeloblastosis Virus) (UniProt Q04095); test: co-purification of His-tagged α- and β-chains over Ni-chelate and heparin-sepharose columns; SDS gel of the final preparation
[2] = biological target: β-chain of the AMV-RT with an N-terminal His tag (expressed from pAMV-βdnaY-His or pAMVαβ-4) (Avian Myeloblastosis Virus) (UniProt Q04095); test: co-purification of Arg-tagged α-chain with His-tagged β-chain over Ni-chelate, heparin-sepharose, S-sepharose and hydroxylapatite columns; SDS gel of the final preparation

Substance | binding [1] | binding [2]
α-chain of the AMV-RT with a His-tag like that of the β-chain (from pAMV-αlacIq-His-trpT, combined on pAMVαβ-4) (from UniProt Q04095 709-1280) (enzyme) | binds | –
α-chain of the AMV-RT with an N-terminal Arg-tag (expressed from pAMV-αlacIq-Arg) (from UniProt Q04095 709-1280) (enzyme) | – | binds
